Experimental data as given in article PMC9976902, “Interaction of human HelQ with DNA polymerase delta halts DNA synthesis and stimulates DNA single-strand annealing” (Nucleic Acids Research, 2022).
These are yes or no findings as the source states them, for the method shown. In cells and extracts the contact can be indirect. Tags and fused reporters may be left off the sequences shown.

T1: N-mVenus fused to POLD3 (human) (UniProt Q15054)
T1 sequence: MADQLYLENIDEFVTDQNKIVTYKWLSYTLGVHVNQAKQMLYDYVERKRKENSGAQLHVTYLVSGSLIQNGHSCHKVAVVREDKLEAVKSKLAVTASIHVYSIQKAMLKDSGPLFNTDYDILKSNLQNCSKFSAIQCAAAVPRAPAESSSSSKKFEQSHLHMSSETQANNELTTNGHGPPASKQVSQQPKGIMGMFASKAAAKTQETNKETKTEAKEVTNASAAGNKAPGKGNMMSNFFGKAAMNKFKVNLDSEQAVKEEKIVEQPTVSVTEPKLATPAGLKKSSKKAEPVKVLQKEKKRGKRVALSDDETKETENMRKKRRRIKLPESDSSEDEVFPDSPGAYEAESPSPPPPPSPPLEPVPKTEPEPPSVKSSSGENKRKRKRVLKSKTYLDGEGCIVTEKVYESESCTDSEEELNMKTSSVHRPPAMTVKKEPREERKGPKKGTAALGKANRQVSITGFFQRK


Experiments:
[1] = target: T1, N-mVenus fused to POLD3 (human); assay: split reporter; BiFC with split mVenus (1–154 / 155–238) in E. coli BL21AI co-expressing an NmVenus and a CmVenus protein; induced with L-arabinose (0.05% w/v) and IPTG (1 mM); cells in PBS in 96-well plates imaged at 515–527 nm, 5–180 min after induction
[2] = target: N-terminal fragment of the mVenus fluorescent protein (1–154aa); assay: as above

binding [1] | binding [2] | Molecule
no binding | – | C-terminal fragment of mVenus (155–238aa) (domain or fragment)
– | no binding | C-mVenus fused to N-HelQ (HelQ amino acids 1–241) (domain or fragment, UniProt Q8TDG4 1-241) MDECGSRIRRRVSLPKRNRPSLGCIFGAPTAAELVPGDEGKEEEEMVAENRRRKTAGVLPVEVQPLLLSDSPECLVLGGGDTNPDLLRHMPTDRGVGDQPNDSEVDMFGDYDSFTENSFIAQVDDLEQKYMQLPEHKKHATDFATENLCSESIKNKLSITTIGNLTELQTDKHTENQSGYEGVTIEPGADLLYDVPSSQAIYFENLQNSSNDLGDHSMKERDWKSSSHNTVNEELPHNCIE
